{"source": "PubChem BioAssay AID504764 | Drosophila RNAi Screening Center | 2011", "aim": "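Knock-downs that raise or lower a Notch target reporter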 (primary screen)", "cells": "Drosophila Kc167 cells", "knock-down reagent": "long dsRNA against Drosophila genes", "duration": "about 5 days (4 days dsRNA, then 24 h after transfection)", "treatment": "transfection of constitutively active membrane-tethered Notch lacking the extracellular domain, read 24 h later", "detection": "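Firefly luciferase from an E(spl)m3 reporter with active Notch, plus control-promoter and uninduced reporter wells for normalisation; unnormalised counts, duplicate wells a and b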", "direction": "induced reporter light, run 1, well a and induced reporter light, run 1, well b: higher = more light from the Notch target reporter with active Notch; control promoter light, run 1, well a and control promoter light, run 1, well b: higher = more light from the viral control promoter (cell number, transfection, viability); uninduced reporter light, run 1, well a: higher = more light from the Notch target reporter without active Notch", "hit rule": "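Hit if the duplicate-averaged log2 ratio of induced to control-promoter light gives a plate-wise z beyond ±2, or induced to uninduced beyond ±1.8; weak-control or discordant-duplicate wells dropped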", "meaning of the calls": "active = modifier hit (raised or lowered Notch signal); inactive = not a hit", "note": "In all, the deposit lists about 22,000 reagents; below is an unselected part of those that have a named target and a result. Of all reagents, 403 (1.9%) got an active call. 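Unnormalised raw counts per well; ratio z-scores behind the hit calls and whether each hit raises or lowers signal are not deposited.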 Names joined by + are all predicted targets of the reagent. No sequences are given here. Not stated in the record: the amount of reagent."}
{"gene": "Prp4k", "DRSC id": "DRSC08144", "induced reporter light, run 1, well a": 86760, "induced reporter light, run 1, well b": 80320, "control promoter light, run 1, well a": 1.12e5, "control promoter light, run 1, well b": 1.11e5, "uninduced reporter light, run 1, well a": 6455, "Outcome": "inactive"}
{"gene": "CG10904", "DRSC id": "DRSC04084", "induced reporter light, run 1, well a": 2.37e5, "induced reporter light, run 1, well b": 2.02e5, "control promoter light, run 1, well a": 2.02e5, "control promoter light, run 1, well b": 1.76e5, "uninduced reporter light, run 1, well a": 14450, "Outcome": "inactive"}
{"gene": "CG7423", "DRSC id": "DRSC20044", "induced reporter light, run 1, well a": 85270, "induced reporter light, run 1, well b": 96430, "control promoter light, run 1, well a": 79730, "control promoter light, run 1, well b": 1.32e5, "uninduced reporter light, run 1, well a": 8270, "Outcome": "inactive"}
{"gene": "CG5577", "DRSC id": "DRSC10519", "induced reporter light, run 1, well a": 1.44e5, "induced reporter light, run 1, well b": 1.40e5, "control promoter light, run 1, well a": 64560, "control promoter light, run 1, well b": 91375, "uninduced reporter light, run 1, well a": 10842, "Outcome": "inactive"}
{"gene": "Sln", "DRSC id": "DRSC07133", "induced reporter light, run 1, well a": 1.11e5, "induced reporter light, run 1, well b": 1.01e5, "control promoter light, run 1, well a": 1.42e5, "control promoter light, run 1, well b": 1.36e5, "uninduced reporter light, run 1, well a": 10620, "Outcome": "inactive"}
{"gene": "Arl1", "DRSC id": "DRSC09667", "induced reporter light, run 1, well a": 1.42e5, "induced reporter light, run 1, well b": 1.54e5, "control promoter light, run 1, well a": 1.85e5, "control promoter light, run 1, well b": 1.78e5, "uninduced reporter light, run 1, well a": 6930, "Outcome": "inactive"}
{"gene": "ng2", "DRSC id": "DRSC18803", "induced reporter light, run 1, well a": 97770, "induced reporter light, run 1, well b": 1.13e5, "control promoter light, run 1, well a": 1.76e5, "control promoter light, run 1, well b": 1.77e5, "uninduced reporter light, run 1, well a": 7850, "Outcome": "inactive"}
{"gene": "CG6621", "DRSC id": "DRSC16076", "induced reporter light, run 1, well a": 82730, "induced reporter light, run 1, well b": 88835, "control promoter light, run 1, well a": 79865, "control promoter light, run 1, well b": 80960, "uninduced reporter light, run 1, well a": 10332, "Outcome": "inactive"}
{"gene": "Hsc70-3", "DRSC id": "DRSC20253", "induced reporter light, run 1, well a": 63035, "induced reporter light, run 1, well b": 50505, "control promoter light, run 1, well a": 80970, "control promoter light, run 1, well b": 88460, "uninduced reporter light, run 1, well a": 5200, "Outcome": "inactive"}
{"gene": "CG9727", "DRSC id": "DRSC12585", "induced reporter light, run 1, well a": 1.24e5, "induced reporter light, run 1, well b": 1.27e5, "control promoter light, run 1, well a": 89425, "control promoter light, run 1, well b": 86935, "uninduced reporter light, run 1, well a": 7825, "Outcome": "inactive"}
{"gene": "ZnT35C", "DRSC id": "DRSC01959", "induced reporter light, run 1, well a": 1.34e5, "induced reporter light, run 1, well b": 1.55e5, "control promoter light, run 1, well a": 1.46e5, "control promoter light, run 1, well b": 1.70e5, "uninduced reporter light, run 1, well a": 11235, "Outcome": "inactive"}
{"gene": "CG13711", "DRSC id": "DRSC08320", "induced reporter light, run 1, well a": 1.74e5, "induced reporter light, run 1, well b": 1.37e5, "control promoter light, run 1, well a": 1.24e5, "control promoter light, run 1, well b": 1.61e5, "uninduced reporter light, run 1, well a": 7785, "Outcome": "inactive"}
{"gene": "nSyb", "DRSC id": "DRSC08727", "induced reporter light, run 1, well a": 1.07e5, "induced reporter light, run 1, well b": 78330, "control promoter light, run 1, well a": 1.74e5, "control promoter light, run 1, well b": 1.53e5, "uninduced reporter light, run 1, well a": 7845, "Outcome": "inactive"}
{"gene": "CG4229", "DRSC id": "DRSC10407", "induced reporter light, run 1, well a": 1.36e5, "induced reporter light, run 1, well b": 1.63e5, "control promoter light, run 1, well a": 97770, "control promoter light, run 1, well b": 1.31e5, "uninduced reporter light, run 1, well a": 10500, "Outcome": "inactive"}
{"gene": "Rab9Db + Rab9D + Rab9E", "DRSC id": "DRSC17656", "induced reporter light, run 1, well a": 66215, "induced reporter light, run 1, well b": 75730, "control promoter light, run 1, well a": 85575, "control promoter light, run 1, well b": 83355, "uninduced reporter light, run 1, well a": 5420, "Outcome": "inactive"}
{"gene": "Gld2", "DRSC id": "DRSC15863", "induced reporter light, run 1, well a": 14425, "induced reporter light, run 1, well b": 14255, "control promoter light, run 1, well a": 17635, "control promoter light, run 1, well b": 16545, "uninduced reporter light, run 1, well a": 4788, "Outcome": "inactive"}
{"gene": "Spn27A", "DRSC id": "DRSC03608", "induced reporter light, run 1, well a": 1.59e5, "induced reporter light, run 1, well b": 1.33e5, "control promoter light, run 1, well a": 1.64e5, "control promoter light, run 1, well b": 1.53e5, "uninduced reporter light, run 1, well a": 9950, "Outcome": "inactive"}
{"gene": "CG9706", "DRSC id": "DRSC11095", "induced reporter light, run 1, well a": 1.67e5, "induced reporter light, run 1, well b": 1.87e5, "control promoter light, run 1, well a": 90185, "control promoter light, run 1, well b": 96970, "uninduced reporter light, run 1, well a": 10245, "Outcome": "inactive"}
